This experiment in a line: qHTS Assay to Find Inhibitors of Chronic Active B-Cell Receptor Signaling. The settings on record: ABC-DLBCL IkBa-CBG/CBR reporter, luminescence ratio (green luciferase fused to IkBa over red control in TMD8 lymphoma cells), 4 h. Put shortly: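 Cell line TMD8 (human ABC DLBCL), stably expressing tet-inducible CBG68-IkBa fusion and CBR; IMDM/0.5% FBS; cpd up to 46 uM; dox induction, 4 h, 37C/5% CO2; dual luminescence; green/red ratio; MG132 control.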
(In qHTS, concentration-response curves come from the screen itself.)

The mark [1] stands for this setting: measured here: CBR red luminescence, cell number.

This is one part of the list. The main result of the screen is listed elsewhere. These columns were measured beside it and carry no call. Most of these compounds were active or inconclusive in the main read-out, so they are no random draw. Words in brackets tell the shape of the fitted curve; partial curves, single points and poor fits give uncertain potencies.

In PubChem BioAssay AID493014 (National Center for Advancing Translational Sciences (NCATS), 2011) one finds AC50 data, which are given here for 42 compounds.

For `CCCS/C(N)=N/N=C/c1ccccc1O`, the half-maximal activity concentration (AC50) under setting [1] is 13 µM [falling, partial curve].
With `CCCN=C(C)c1c(-c2ccccc2)[nH]n(-c2nc3ccccc3s2)c1=O`, the AC50 under setting [1] is 6.51 µM [rising, partial curve, poor fit].
As to `COc1ccc2[nH]c(C(=O)Nc3cccc(C)n3)cc2c1`, under setting [1], the concentration at half-maximal activity (AC50) is 8.91 µM [falling, partial curve, poor fit].
On the same count and under the same terms, for `CC1(C)Cc2c(cnn2-c2cccc(F)c2)C(NC(=O)c2csnn2)C1` (configuration not stated) the value was 3.98 µM [falling, single point]; for `O=C(NCC1CC1)Nc1ccc(Cl)cc1`, 0.794 µM [rising, full curve, poor fit]; for `COc1ccccc1/C=C(\C#N)C(=O)c1cccn1C`, 17.8 µM [falling, single point].
With `Brc1ccc(/C=N/Nc2ccc3ccccc3n2)cc1`, the AC50 under setting [1] is 15.8 µM [falling, partial curve].
Regarding `CCC(C)(C)n1nnnc1C(c1cc(OC)c(OC)c(OC)c1)N1CCN(c2ccccc2)CC1` (configuration not stated), under setting [1], the AC50 was 0.13 µM [rising, full curve, poor fit].
`COc1ccccc1NC(=O)/C=C/C(=O)O`: under setting [1], the concentration at half-maximal activity (AC50) was 35.5 µM [falling, single point].
Turning to `O=C(Nc1ccc(Cl)cc1)c1cc(-c2cccs2)on1`, the AC50 under setting [1] is 6.31 µM [falling, full curve].
On the same count and under the same terms, for `O=C(CCC(=O)N1CCOc2ccccc21)Nc1ccc(F)cc1F` the value was 7.08 µM [falling, full curve, poor fit].
As for `Cc1cccc(N2CCN(C(=O)CCS(=O)(=O)c3ccc(Br)cc3)CC2C)c1` (configuration not stated), the AC50 under setting [1] was 6.31 µM [falling, single point].
The same measure, in the same setting: under `Cn1cc(Br)c(C(=O)NNC(=O)c2cccc(Br)c2)n1` stands 11.2 µM [falling, partial curve, poor fit]; under `O=C(O)c1ccccc1Nc1ccc([N+](=O)[O-])c2nonc12`, 22.4 µM [rising, partial curve, poor fit].
As for `Cc1cccc(NC(=O)NC(=O)c2ccccc2)n1`, under setting [1], the AC50 was 1.78 µM [falling, full curve, poor fit].
Same read-out and setting: under `Fc1cc(Br)ccc1NC(=S)Nc1cccnc1` stands 35.5 µM [rising, single point].
Same read-out and setting: for `C=CCSc1nc2ccccc2n1C(=O)/C=C/c1ccc(OC)c(OC)c1` the value was 0.562 µM [falling, full curve, poor fit]; for `O=C(NCCCCNC(=O)c1ccccn1)c1ccccn1`, 5.62 µM [falling, single point]; for `COc1cccc(COC(=O)c2cc(S(=O)(=O)N3CCCCC3)ccc2N2CCOCC2)c1OC`, 0.651 µM [rising, full curve, poor fit].
On to `Cc1ccnc(N2CCN(C(=O)CSc3nc4ccccc4nc3N3CCCCC3)CC2)c1`, for which the half-maximal activity concentration (AC50) under setting [1] is 0.731 µM [rising, partial curve, poor fit].
Regarding `Cc1cc(OC(=O)c2c(C)cc(O)cc2O)cc(O)c1C(=O)O`, the AC50 under setting [1] was 20.6 µM [rising, partial curve].
Regarding `O=C(/C=C/c1ccccc1)NC(=O)c1ccccc1O`, under setting [1], the concentration at half-maximal activity (AC50) is 0.251 µM [falling, full curve].
The same measure, in the same setting: for `O=c1c2ccccc2nc(COc2ccccc2)n1/N=C/c1cn[nH]c1-c1ccccc1` the value was 20.6 µM [falling, single point].
Regarding `CCOC(=O)c1c(C)c(C(=O)N(C)C2CCCCC2)c(C)n1C`, the AC50 under setting [1] is 4.47 µM [rising, single point].
On to `CC1CCCC(C)N1C(=O)CSc1nnc(COc2cccc3cccnc23)o1` (configuration not stated), for which, where the note is “measured here: IkBa-CBG green luminescence”, the AC50 is 35.5 µM [rising, partial curve, poor fit].
For the compound `CCSc1nc(CC)c2c(c1C#N)CCCC2`, the AC50 under setting [1] is 14.6 µM [rising, partial curve].
On to `CCOC(=O)c1c(NC(=O)c2cccs2)sc(CC)c1-c1cccs1`, for which the AC50 under setting [1] is 16.4 µM [rising, single point].
As for `COc1ccc(CCNC(=O)COC(=O)CCC(=O)c2ccc(F)cc2)cc1`, the AC50 under setting [1] was 35.5 µM [falling, partial curve, poor fit].
On the same count and under the same terms, under `O=C(c1cccs1)N1CCN(Cc2ccc3c(c2)OCO3)CC1` stands 35.5 µM [falling, single point].
On to `CC(C)(C)OCC1CO1` (configuration not stated), for which the AC50 under setting [1] was 25.9 µM [falling, partial curve].
With `Clc1ccccc1CNc1ncnc2c1c(-c1ccccc1)cn2-c1ccccc1`, the AC50 under setting [1] is 1.58 µM [rising, partial curve, poor fit].
Take `COC(=O)C1=C(CN2CCc3ccccc32)NC(=O)NC1c1cc(C)ccc1C` (configuration not stated): the AC50 under setting [1] is 14.6 µM [falling, partial curve].
Same read-out and setting: for `CCCNC(=O)c1ccc(N2CCC3(CC2)CC(c2cccc(Br)c2)=NO3)c(NC(=O)c2ccco2)c1` the value was 4.61 µM [rising, partial curve, poor fit]; for `c1ccc2c(c1)CSc1sccc1C2=C1CCNCC1`, 29.1 µM [falling, single point]; for `CCOC(=O)c1ccc(NC(=O)COc2ccccc2CNCCc2ccccc2)cc1`, 35.5 µM [falling, single point].
`Cc1ccc(Cl)cc1NC(=O)CN1C(=O)NC(C)(C2CC2)C1=O` (configuration not stated): the AC50 under setting [1] was 20.6 µM [rising, partial curve, poor fit].
For the compound `O=C(CSCc1ccccc1Cl)NCCSc1ccccn1`, under setting [1], the AC50 is 11.2 µM [rising, single point].
For `CN(c1ccc(F)cc1)S(=O)(=O)c1ccc(Cl)c(C(=O)NCC(c2ccco2)N2CCCCC2)c1` (configuration not stated), under setting [1], the half-maximal activity concentration (AC50) was 16.4 µM [falling, single point].
On to `O=C(NCC1CCCO1)c1onc(CSc2ccccc2F)c1C(=O)O` (configuration not stated), for which the AC50 under setting [1] is 11.2 µM [falling, single point].
Take `COc1ccc(-c2cc(=Nc3c(C)n(C)n(-c4ccccc4)c3=O)c3ccccc3o2)cc1`: the AC50 under setting [1] was 6.31 µM [rising, single point].
For the compound `CCC(C)(C)NC(=O)CN(Cc1cccs1)C(=O)C(=O)Nc1ccc2c(c1)OCCO2`, the half-maximal activity concentration (AC50) under setting [1] was 3.16 µM [falling, full curve].
Consider `O=C1[C@@H]2C(Cc3ccc(O)cc3)NC3(C(=O)Nc4ccc(F)cc43)[C@@H]2C(=O)N1c1ccc(F)cc1` (some centres not stated), for which the half-maximal activity concentration (AC50) under setting [1] is 13 µM [falling, partial curve].

The AC50 is the concentration at which the activity in the assay is half-maximal.
